Values from PubChem BioAssay AID504804 (Drosophila RNAi Screening Center, 2011)
Purpose: 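Fly genes whose loss lessens doxorubicin-driven cell death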 (primary screen). Cells: Drosophila Kc cells. Reagents: long dsRNA against Drosophila genes, 0.5 µg dsRNA per well. Duration: 96 h (48 h knock-down, then 48 h drug). Treatment: doxorubicin 5 µg/ml for 48 h, added 48 h after dsRNA. Measured: 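Viability measured as cellular ATP by luminescence after 48 h knock-down then 48 h doxorubicin at 5 µg/ml; unnormalised plate counts for each replicate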. Scale: raw ATP luminescence: higher = more viable cells, protection from doxorubicin. Hit rule: 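Active when both duplicate wells lie at least 2 SD above the plate mean and protection is confirmed by rescreening and independent dsRNAs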.
In all, the deposit lists about 19,000 reagents; shown is an unselected part of those with a known target gene and a result. Of all reagents, 47 (0.25%) were called active. 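Signals are raw, not normalised; exact z-scores behind calls not deposited; actives needed confirmation, so some wells reaching 2 SD are inactive.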 Unmarked entries are inactive. Reagents against one gene are numbered here. Names joined by + are all predicted targets of the reagent.

pdgy showed raw ATP luminescence, replicate 1 = 2.59e5; raw ATP luminescence, replicate 2 = 2.59e5.
With knock-down of Mitofilin the results were raw ATP luminescence, replicate 1 = 33860; raw ATP luminescence, replicate 2 = 54997.
For CG5382, the entry reads raw ATP luminescence, replicate 1 = 37913; raw ATP luminescence, replicate 2 = 39173.
CG13024 scored raw ATP luminescence, replicate 1 = 68437; raw ATP luminescence, replicate 2 = 57830.
Against Ir20a, the entry reads raw ATP luminescence, replicate 1 = 3.65e5; raw ATP luminescence, replicate 2 = 2.86e5.
With knock-down of CR12628 + Mgstl #1, the screen gave raw ATP luminescence, replicate 1 = 52210; raw ATP luminescence, replicate 2 = 56387.
CR12628 + Mgstl #2 scored raw ATP luminescence, replicate 1 = 3.26e5; raw ATP luminescence, replicate 2 = 3.39e5.
Against CG18563 the deposit lists raw ATP luminescence, replicate 1 = 88563; raw ATP luminescence, replicate 2 = 1.11e5.
For CG6153 the deposit lists raw ATP luminescence, replicate 1 = 88597; raw ATP luminescence, replicate 2 = 52183.
CG4666 showed raw ATP luminescence, replicate 1 = 57980; raw ATP luminescence, replicate 2 = 46760.
For Ir7d, the entry reads raw ATP luminescence, replicate 1 = 43820; raw ATP luminescence, replicate 2 = 46690.
CG5056 scored raw ATP luminescence, replicate 1 = 58100; raw ATP luminescence, replicate 2 = 86673.

Copied from the list.
For “raw ATP luminescence, replicate 1”, CG5056 has 58100
Under “raw ATP luminescence, replicate 1”, CG13024 is entered as 68437
